No constants are given. Whether binding was seen depends on the method and setting. In cells and extracts the contact can be indirect. Binding can be weak; no strength is given. Sequences can lack the tags named with a protein.

The labels stand for the following.
B1: GFP:PDZ^dom (amino acids 1-219 of human PDZ RhoGEF fused to GFP) (domain or fragment, UniProt O15085 1-219)
chain: MSVRLPQSIDRLSSLSSLGDSAPERKSPSHHRQPSDASETTGLVQRCVIIQKDQHGFGFTVSGDRIVLVQSVRPGGAAMKAGVKEGDRIIKVNGTMVTNSSHLEVVKLIKSGAYVALTLLGSSPSSMGISGLQQDPSPAGAPRITSVIPSPPPPPPLPPPQRITGPKPLQDPEVQKHATQILRNMLRQEEKELQDILPLYGDTSQRPSEGRLSLDSQEG
B2: GFP:PDZ(C-term) (amino acids 1168-1522 of human PDZ RhoGEF fused to GFP) (domain or fragment, UniProt O15085 1168-1522)
chain: STSLDGENRGIRTRNPIHLAFPGPLFMEGLADSALEDVENLRHLILWSLLPGHTMETQAAQEPEDDLTPTPSVISVTSHPWDPGSPGQAPPGGEGDNTQLAGLEGERPEQEDMGLCSLEHLPPRTRNSGIWESPELDRNLAEDASSTEAAGGYKVVRKAEVAGSKVVPALPESGQSEPGPPEVEGGTKATGNCFYVSMPSGPPDSSTDHSEAPMSPPQPDSLPAGQTEPQPQLQGGNDDPRRPSRSPPSLALRDVGMIFHTIEQLTLKLNRLKDMELAHRELLKSLGGESSGGTTPVGSFHTEAARWTDGSLSPPAKEPLASDSRNSHELGPCPEDGSDAPLEDSTADAAASPGP
B3: GFP:PDZ(DH/PH) (amino acids 702-1152 of human PDZ RhoGEF fused to GFP) (domain or fragment, UniProt O15085 702-1152)
chain: GQLSDLEPEPDAQNWQHTVGKDVVAGLTQREIDRQEVINELFVTEASHLRTLRVLDLIFYQRMKKENLMPREELARLFPNLPELIEIHNSWCEAMKKLREEGPIIKEISDLMLARFDGPAREELQQVAAQFCSYQSIALELIKTKQRKESRFQLFMQEAESHPQCRRLQLRDLIISEMQRLTKYPLLLESIIKHTEGGTSEHEKLCRARDQCREILKYVNEAVKQTENRHRLEGYQKRLDATALERASNPLAAEFKSLDLTTRKMIHEGPLTWRISKDKTLDLHVLLLEDLLVLLQKQDEKLLLKCHSKTAVGSSDSKQTFSPVLKLNAVLIRSVATDKRAFFIICTSKLGPPQIYELVALTSSDKNTWMELLEEAVRNATRHPGAAPMPVHPPPPGPREPAQQGPTPSRVELDDSDVFHGEPEPEELPGGTGSQQRVQGKHQVLLEDPEQ

In the assay the target is GST-SRs 31-37 (spectrin repeats 31-37 of human Nesprin-2 fused to GST) (human). Briefly: pull-down; 1 mg cell lysate incubated with 1 μg GST protein on glutathione-agarose beads for 4 h at 4 °C; washed three times with immunoprecipitation/kinase buffer (50 mM Hepes pH 7.5, 150 mM NaCl, 1 mM EDTA, 2.5 mM EGTA, 10% glycerol, 0.1% Tween 20); SDS PAGE and Western blotting; only the target purified.
Consider B1, for which the binding result is given as “no binding (tested: 1 mg cell lysate with 1 μg GST protein)”.
The result for B2 reads “no binding (tested: 1 mg cell lysate with 1 μg GST protein)”; that for B3, “binds”.

Source of the values: paper PMC12528419.
